Here are results for four molecules from patent publication US8969542B2, “HPV polyepitope constructs and uses thereof” (priority 2007, dated 2015).

Where a SMILES comes first, the peptide text is derived from it.

The subject of the series is purified HLA class II (HLA-DR) molecules. The series can be described thus: HLA class II (HLA-DR) competition binding assay, purified HLA (allele not specified). Details: species or system human. The settings on record: number of HLA-DR alleles of Table 7 bound.

Consider `CC[C@H](C)[C@H](NC(=O)[C@H](CO)NC(=O)[C@H](Cc1c[nH]cn1)NC(=O)[C@@H](N)Cc1ccccc1)C(=O)N[C@@H](C)C(=O)NCC(=O)N[C@@H](CCC(N)=O)C(=O)N[C@@H](Cc1ccc(O)cc1)C(=O)N[C@@H](CCCNC(=N)N)C(=O)NCC(=O)N[C@@H](CCC(N)=O)C(=O)N[C@@H](CS)C(=O)N[C@@H](CC(N)=O)C(=O)N[C@H](C(=O)N[C@@H](CS)C(=O)O)[C@@H](C)O` [compound 119] (H-FHSIAGQYRGQCNTC-OH), for which the No. alleles bound was 6.

“LQAIELQLTLETIYN (Human papillomavirus type 16) [SEQ ID 92]” had a No. alleles bound of 9.

Molecule `CC[C@H](C)[C@H](NC(=O)[C@H](CS)NC(=O)[C@H](CC(=O)O)NC(=O)[C@H](CCCNC(=N)N)NC(=O)[C@H](Cc1ccc(O)cc1)NC(=O)[C@@H](NC(=O)[C@@H](NC(=O)[C@H](CS)NC(=O)[C@@H](N)CC(C)C)[C@@H](C)CC)C(C)C)C(=O)N[C@@H](C)C(=O)N[C@@H](Cc1ccc(O)cc1)C(=O)N[C@@H](C)C(=O)N[C@@H](C)C(=O)N[C@@H](CS)C(=O)N[C@@H](Cc1c[nH]cn1)C(=O)O` [compound 118] yielded a No. alleles bound of 7.

`CC[C@H](C)[C@H](NC(=O)[C@H](CS)NC(=O)[C@H](CCCNC(=N)N)NC(=O)CNC(=O)[C@@H](N)[C@@H](C)O)C(=O)N[C@@H](C)C(=O)N[C@@H](CS)C(=O)N[C@@H](Cc1c[nH]c2ccccc12)C(=O)N[C@@H](CCCNC(=N)N)C(=O)N[C@@H](CCCNC(=N)N)C(=O)N1CCC[C@H]1C(=O)N[C@@H](CCCNC(=N)N)C(=O)N[C@H](C(=O)N[C@@H](CCC(=O)O)C(=O)N[C@H](C(=O)O)[C@@H](C)O)[C@@H](C)O` [compound 110] (H-TGRCIACWRRPRTET-OH) came in with a No. alleles bound of 6.
